PubChem BioAssay AID743121, NCATS, 2013

Aim: 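Partners whose loss is lethal together with topoisomerase I blockade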 (primary screen)
Cell system: MDA-MB-231 cells, a human breast cancer line
Reagents: single siRNA against human genes, 20 nM siRNA (0.8 pmol per well)
Time to read-out: 120 h (drug added 48 h after transfection, read 72 h later)
Challenge: camptothecin 20 nM (about EC30) for 72 h; vehicle 0.1% DMSO in parallel plates
Measurement: 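Cell viability by ATP luminescence (CellTiter-Glo) as % of non-targeting siRNA wells, and the log2 ratio of viability without drug over viability with camptothecin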
Scale: log2 vehicle/camptothecin viability: higher = stronger sensitisation to camptothecin; viability with camptothecin and viability without drug: higher = more viable cells
Rule for the call: 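Active genes have an RSA gene-level p-value below 0.001, computed from the ratios of their separate siRNAs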
Here is a random part of about 26,000 reagents tested. In the full data, 167 (0.63%) were called active. 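Calls are per gene from RSA p-values that are not deposited; an individual active-marked siRNA can sensitise only weakly.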 The numbers tell different reagents against one gene apart.

| target gene | siRNA no. | log2 vehicle/camptothecin viability | viability with camptothecin (% of control) | viability without drug (% of control) | call |
| --- | --- | --- | --- | --- | --- |
| SCNN1D | 1 | -0.332 | 82.8 | 65.8 | inactive |
| SCNN1D | 2 | -0.0135 | 70.5 | 69.8 | inactive |
| SCNN1D | 3 | -0.525 | 105 | 73 | inactive |
| SCNN1D | 4 | 0.478 | 46.2 | 64.3 | inactive |
| TOP1 | 1 | -0.158 | 108 | 96.5 | inactive |
| TOP1 | 2 | -0.501 | 81.9 | 57.9 | inactive |
| TOP1 | 3 | -0.284 | 118 | 96.6 | inactive |
| MAPRE2 | 1 | -0.262 | 75.1 | 62.6 | inactive |
| MAPRE2 | 2 | 0.366 | 43.2 | 55.7 | inactive |
| MAPRE2 | 3 | 1.56 | 5.66 | 16.7 | inactive |
| MAPRE2 | 4 | -0.223 | 79 | 67.7 | inactive |
| MARCKS | 1 | 0.483 | 37.3 | 52.2 | inactive |
| MARCKS | 2 | 0.25 | 68.2 | 81.1 | inactive |
| MARCKS | 3 | -0.359 | 85.1 | 66.3 | inactive |
| MARCKS | 4 | 0.223 | 95.8 | 112 | inactive |
| NPY5R | 1 | -0.548 | 63.1 | 43.1 | inactive |
| NPY5R | 2 | -0.396 | 97.5 | 74.1 | inactive |
| NPY5R | 3 | 0.114 | 67.9 | 73.5 | inactive |
| NPY5R | 4 | -0.18 | 92.3 | 81.5 | inactive |

No new results follow: entries from further up.
| target gene | siRNA no. | log2 vehicle/camptothecin viability | viability with camptothecin (% of control) | viability without drug (% of control) | call |
| --- | --- | --- | --- | --- | --- |
| SCNN1D | 4 | 0.478 | 46.2 | 64.3 | inactive |
| TOP1 | 1 | -0.158 | 108 | 96.5 | inactive |
| TOP1 | 2 | -0.501 | 81.9 | 57.9 | inactive |
| TOP1 | 3 | -0.284 | 118 | 96.6 | inactive |
| MAPRE2 | 1 | -0.262 | 75.1 | 62.6 | inactive |
| MAPRE2 | 2 | 0.366 | 43.2 | 55.7 | inactive |
| MAPRE2 | 3 | 1.56 | 5.66 | 16.7 | inactive |

Next records follow.
| target gene | siRNA no. | log2 vehicle/camptothecin viability | viability with camptothecin (% of control) | viability without drug (% of control) | call |
| --- | --- | --- | --- | --- | --- |
| KCNN1 | 1 | -0.249 | 71.3 | 60 | inactive |
| KCNN1 | 2 | 0.158 | 51.3 | 57.2 | inactive |
| KCNN1 | 3 | -0.491 | 52.1 | 37.1 | inactive |
| KCNN1 | 4 | -0.55 | 57.8 | 39.5 | inactive |
| CXCR3 | 1 | 0.268 | 74.2 | 89.4 | inactive |
| CXCR3 | 2 | 0.164 | 34.8 | 38.9 | inactive |
| CXCR3 | 3 | 0.265 | 37.4 | 44.9 | inactive |
| CXCR3 | 4 | -0.0959 | 94.1 | 88 | inactive |
| MAP2K6 | 1 | -0.113 | 80.3 | 74.2 | inactive |
| MAP2K6 | 2 | -0.558 | 98.5 | 66.9 | inactive |
| MAP2K6 | 3 | -0.18 | 115 | 101 | inactive |
| MAP2K6 | 4 | -0.129 | 111 | 101 | inactive |
| DOK5 | 1 | -0.168 | 130 | 115 | inactive |
| DOK5 | 2 | -0.469 | 67.3 | 48.6 | inactive |
| DOK5 | 3 | -0.019 | 115 | 113 | inactive |
| DOK5 | 4 | -0.0785 | 98.1 | 92.9 | inactive |
| LYPD5 | 1 | -0.108 | 45.4 | 42.1 | inactive |
| LYPD5 | 2 | 0.0808 | 73.9 | 78.2 | inactive |
| LYPD5 | 3 | -0.114 | 54.9 | 50.7 | inactive |
| LYPD5 | 4 | -0.561 | 72.5 | 49.1 | inactive |
| PAK1 | 1 | 0.638 | 68.2 | 106 | inactive |
| PAK1 | 2 | 0.0838 | 96.7 | 103 | inactive |
| PAK1 | 3 | -0.0901 | 111 | 104 | inactive |
| PAK1 | 4 | -0.144 | 91.5 | 82.8 | inactive |
| METTL6 | 1 | -0.208 | 93.8 | 81.3 | inactive |
| METTL6 | 2 | -0.0769 | 95.8 | 90.8 | inactive |
| METTL6 | 3 | 0.55 | 45.8 | 67.1 | inactive |
